Paper PMC10539439 (Pharmacological Reports, 2023)
Values joined by “and” are separate entries in the source; they are usually repeats but may differ in a detail not shown here. Equal values may be shown once. Further values from the same series stand in other lists.

Experiment: Spontaneous activity in the home cage (RFID, TraffiCage)
Format: in vivo, rat
Details: hight-fat diet, 5mg/kg
Procedure: Rat spontaneous activity was monitored for 24 h on the 1st and 24th (after multiple administrations of tested compound or vehicle) day of treatment with a radio-frequency identification system (RFID system)—TraffiCage (TSE-Systems, Germany)—transponder-based activity monitoring under group housing. The animals had subcutaneously implanted transponder identification with RFID code, which allowed the presence and time spent in different areas of the home cage to be recorded. The data were collected with a dedicated platform, placed under the home cage, containing five RFID antennas (six cage areas) reading telemetrically the presence of RFID chips and stored for analysis with a dedicated computer program. The animals during the monitoring of spontaneous activity were in home cages and always had free access to food and water.

In the case of `Cl.N=C(N)NN=Cc1c(Cl)cc(O)cc1Cl` [4-OH-Guanabenz, 2-[(2,6-Dichloro-4-hydroxyphenyl)methylene]hydrazinecarboximidamide Hydrochloride], the activity (after 24th administration, hour 1, individual rats) was 821 counts and 278 counts and 276 counts and 359 counts, the activity (after 24th administration, hour 2, individual rats) was 251 counts and 189 counts and 399 counts and 110 counts and the activity (after 24th administration, hour 3, individual rats) was 24 counts and 79 counts and 303 counts and 220 counts. The activity (after 24th administration, hour 4, individual rats) was 8 counts and 57 counts and 92 counts and 647 counts, the activity (after 24th administration, hour 5, individual rats) was 469 counts and 40 counts and 681 counts and 229 counts and the activity (after 24th administration, hour 6, individual rats) was 213 counts and 149 counts and 447 counts and 529 counts. For the same molecule, the activity (after 24th administration, hour 7, individual rats) was 926 counts and 492 counts and 144 counts and 361 counts, the activity (after 24th administration, hour 8, individual rats) was 494 counts and 703 counts and 331 counts and 754 counts and the activity (after 24th administration, hour 9, individual rats) was 339 counts and 426 counts and 593 counts and 224 counts. The activity (after 24th administration, hour 10, individual rats) was 850 counts and 411 counts and 587 counts and 574 counts, the activity (after 24th administration, hour 11, individual rats) was 603 counts and 621 counts and 889 counts and 501 counts and the activity (after 24th administration, hour 12, individual rats) was 516 counts and 409 counts and 694 counts and 800 counts. The activity (after 24th administration, hour 13, individual rats) was 208 counts and 1130 counts and 505 counts and 315 counts, the activity (after 24th administration, hour 14, individual rats) was 463 counts and 688 counts and 286 counts and 914 counts and the activity (after 24th administration, hour 15, individual rats) was 694 counts and 250 counts and 88 counts and 1257 counts. For the same molecule, the activity (after 24th administration, hour 16, individual rats) was 677 counts and 514 counts and 374 counts and 206 counts, the activity (after 24th administration, hour 17, individual rats) was 412 counts and 548 counts and 667 counts and 707 counts and the activity (after 24th administration, hour 18, individual rats) was 184 counts and 332 counts and 717 counts and 638 counts. The activity (after 24th administration, hour 19, individual rats) was 136 counts and 114 counts and 250 counts and 631 counts, the activity (after 24th administration, hour 20, individual rats) was 59 counts and 137 counts and 165 counts and 350 counts and the activity (after 24th administration, hour 21, individual rats) was 258 counts and 101 counts and 417 counts and 37 counts. For the same molecule, the activity (after 24th administration, hour 22, individual rats) was 85 counts and 269 counts and 650 counts and 104 counts, the activity (after 24th administration, hour 23, individual rats) was 231 counts and 10 counts and 295 counts and 545 counts and the activity (after 24th administration, hour 24, individual rats) was 223 counts and 29 counts and 56 counts and 102 counts. For the same molecule, the activity (after first administration, hour 1, individual rats) was 354 counts and 430 counts and 376 counts and 259 counts and 96 counts, the activity (after first administration, hour 22, individual rats) was 643 counts and 348 counts and 364 counts and 130 counts and 423 counts and the activity (after first administration, hour 23, individual rats) was 386 counts and 487 counts and 293 counts and 723 counts and 7* counts. For the same molecule, the activity (after first administration, hour 24, individual rats) was 347 counts and 65 counts and 276 counts and 197 counts and 96 counts.
